Some results were stated once for a whole list of compounds, not compound by compound.
Legend:
[1] = Protocol: Solubility Determination. Test compounds (4 mg) were added to 200 μL of one of the tested aqueous solutions (hereinafter—buffer): 100 mM aqueous HCl (pH 1) or 100 mM Na-phosphate buffer (pH 7). The obtained suspensions/solutions with the theoretical concentration of 20 mg/mL were further allowed to equilibrate at 25° C. on a thermostatic orbital shaker for 24 hours and then centrifuged at 6000 rpm for 4 minutes and filtered through HTS filter plates using a vacuum manifold. In parallel, compound dilutions in 50% acetonitrile/HCl and 30% acetonitrile/Na-phosphate buffer mixes were prepared to theoretical concentrations of 0 mg/mL (blank), 0.1 mg/mL, 0.2 mg/mL, and 0.4 mg/mL in duplicates to generate calibration curves falling within the optimum UV absorption range. The filtrates of test compounds were diluted 100-fold with acetonitrile-buffer mixtures before measuring. The filtered supernatant test samples were transferred to 96-well plates and measured for absorbance in the 200-550 nm range with 5 nm step increment. The concentrations of compounds in supernatants were calculated using the measured absorbance and the previously determined calibration curve. Proper absorbance wavelengths for calculations were selected for each compound manually based on absorbance maxima (absolute absorbance unit values for the minimum and maximum concentration points within 0-2.5 OD range).
[2] = target: T1, human mu opioid receptor (MOR) (Homo sapiens, UniProt P35372); experiment: BRET assay measuring G protein activation, agonist activity at human MOR (transfected HEK-293T cells); format: cell-based; conditions: 15a vs 15b and 15c; 16a vs 16b and 16c
T1 construct: expressed in transfected cells; host or cells: HEK-293T
Protocol: The diarylthiazepinamine carboxylic acids (9) were tested for agonist activity at the human mu opioid receptor (MOR) and delta opioid receptor (DOR) using bioluminescence resonance energy transfer (BRET) assays measuring G protein activation as previously described (Table 1) (Rives, M.-L. et al. 2012; Negri, A. et al. 2013).
Transfection. Human MOR cDNA was transfected alongside […] with RLuc8 inserted at position 91 (GαoB-RLuc8), Gβ1 (β1), and Gγ2 fused to the full-length mVenus at its N terminus (mVenus-γ2) into HEK-293T cells (5×10^6 cells/plate) in 10-cm dishes using PEI (Polysciences Inc.; Warrington, PA) in a 1:1 ratio diluted in Opti-MEM (Life Technologies Corp.; Grand Island, NY) to assay for G protein activation as described previously (Rives, M.-L. et al. 2012; Negri, A. et al. 2013). Cells were maintained in Dulbecco's Modified Eagle Medium (high glucose #11965; Life Technologies) supplemented with 10% FBS (Premium Select, Atlanta Biologicals; Atlanta, GA) and 100 U/mL penicillin and 100 μg/mL streptomycin (#15140, Life Technologies). […]
BRET. […] Following coelenterazine H addition, ligands were added and the BRET signal was measured at 5 minutes on a PHERAstar FS plate reader. Quantification of the BRET signal required calculating the ratio of the light emitted by the energy acceptor, mVenus (510-540 nm), over the light emitted by the energy donor, RLuc8 (485 nm). […]

Protein sequences, listed by entry. Tags and fused reporters are not part of them.
UniProt P35372, whole entry: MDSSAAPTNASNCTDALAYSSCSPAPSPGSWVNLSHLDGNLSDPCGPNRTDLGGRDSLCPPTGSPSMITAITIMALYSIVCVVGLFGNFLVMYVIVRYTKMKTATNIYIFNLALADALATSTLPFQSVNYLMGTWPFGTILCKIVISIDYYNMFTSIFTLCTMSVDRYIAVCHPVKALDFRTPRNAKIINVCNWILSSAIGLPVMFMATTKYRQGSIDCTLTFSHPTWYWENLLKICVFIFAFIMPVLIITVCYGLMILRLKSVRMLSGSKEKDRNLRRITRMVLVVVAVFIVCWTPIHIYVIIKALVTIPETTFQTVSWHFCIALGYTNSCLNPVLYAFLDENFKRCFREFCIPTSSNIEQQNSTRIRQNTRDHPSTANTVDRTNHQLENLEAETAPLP

Compound	Fold more soluble than monohalo counterpart at pH 1 [1]	Loss of activity at MOR by chlorine substituent at position 2 [2] [fold]
CN1c2ccccc2C(NCCCCCCC(=O)O)c2cc(F)c(Br)cc2S1(=O)=O.Cl (stereo not shown) [Compound 9b, 7-((3-Bromo-2-fluoro-6-methyl-5,5-dioxido-6,11-dihydrodibenzo[c,f][1,2]thiazopin-11-yl)amino) heptanoic acid hydrochloride salt]	at least 10 fold	–
CN1c2ccccc2C(NCCCCCCC(=O)O)c2cc(F)c(I)cc2S1(=O)=O.Cl (stereo not shown) [Compound 9k, 7-((2-fluoro-3-iodo-6-methyl-5,5-dioxido-6,11-dihydrodibenzo[c,f][1,2]thiazopin-11-yl)amino)heptanoic acid hydrochloride salt]	at least 10 fold	–
CCOC(=O)CCCCCCNC1c2ccccc2N(C)S(=O)(=O)c2ccc(Cl)cc21 (stereo not shown) [Compound 15a, reference compound]	–	≥ 6
COCCCNC1c2ccccc2N(C)S(=O)(=O)c2ccc(Cl)cc21 (stereo not shown) [Compound 16a, reference compound]	–	≥ 6

Source: patent US20230373940A1, “CARBOXYLIC DIARYLTHIAZEPINEAMINES AND USES THEREOF” (Kures, Inc., priority 2020, published 2023)
